# Measured values reported in PubChem BioAssay AID1347423 (Functional Genomics Laboratory (NCATS/FGL), 2020).
# Hit rate of the full screen: of about 52,000 sequences, about 210 (0.4%) were called active.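 The calls were made as follows: active = gene whose silencing raises cell survival under the drug, median off-target-corrected z-score across its silencing RNAs 2 or more; inactive = the rest.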 Some of the results follow.
# Test: Resistance to Poly (ADP-Ribose) Polymerase inhibitor: Gene Identification via Genome-wide siRNA Screen
# Details: mouse BRCA2 R2336H ES cells, olaparib, CellTiter-Glo viability; active compounds read high
# Procedure, shortened: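 Mouse BRCA2 R2336H ES cells were reverse-transfected with siRNA (20 nM final), treated at 48 h with 500 nM olaparib, and read by CellTiter-Glo after 72 h. Scores: MAD-based z per siRNA, median per gene, seed off-target correction.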
row,Sequence,z-score
1,GCACUGAAACUCCAUCCUATT against Rag1,inactive: 1.1
2,GGAGCAAAAACCUCUAAAUTT against Itgb1bp2,inactive: -0.0483
3,GGACCUAUUGAAGGCAAAATT against Nfkb1,inactive: -1.76
4,GGCCUUUGUGCGCACUUAUTT against Armc5,inactive: -1.27
5,GGAGAGAAGAUCAUUUCAATT against Ncam2,inactive: -0.171
6,GGUGAACUGCUUAAACAAATT against Gstt2,inactive: -0.644
7,CGCAAAGGAGGCUUUACUCTT against BC024806,inactive: -0.417
8,GGCCCUAAAUUAUACCAGCTT against Mist1,inactive: 0.745
9,UUCUGAUGCCCUCCAUUUUTT against Psg19,inactive: 0.575
10,GGAAAGGAAGUAGAUAACUTT against Arcn1,inactive: -2.38
11,GGAACUAAAAGGACCCAAUTT against Rbm21,inactive: -0.0823
12,GGUGGUUGAAAUAUGAUGATT against Klhl7,inactive: 0.479
13,GGACACUCAAUGAAAUCUATT against Foxp3,inactive: 1.13
14,GCUAGUUAAGAGGAGGCUGTT against 1700021I09Rik,inactive: -0.607
15,GGUUUACAAAGGCACACCCTT against Prim2,inactive: 0.651
16,CCUUUUUGCUGAAUGUGGATT against Aard,inactive: 0.38
17,CGUAUUCUGGUAGUGAAGGTT against Olfr1384,inactive: -1.8
18,GGCCUUACAUCCUGUCUUUTT against 2810038K19Rik,inactive: -2.08
19,GGUUUUUGUUAAGGUCAAUTT against Abca16,inactive: 1.03
20,GGCUUUCCGUAUAACCUACTT against 1700018F24Rik,inactive: 1.09
21,GGCUUCAGCAGAAAACUUCTT against 2810409H07Rik,inactive: 0.498
22,CGGUUACUUGUAACAUUCCTT against Stoml3,inactive: -0.975
23,GGGUUUAUUAGAUUUGUCUTT against Ammecr1,inactive: -0.609
24,GGAGUUUCUAUUCAACAUGTT against Hoxa10,inactive: 0.168
25,GCCCAAGCAGUUCAUUCAUTT against Epc2,inactive: -1.04
26,GGGUGUAGACAGUUCUUUGTT against Adam30,inactive: -0.935

# In another format: results already given.
row | Sequence | z-score
3 | GGACCUAUUGAAGGCAAAATT against Nfkb1 | inactive: -1.76
4 | GGCCUUUGUGCGCACUUAUTT against Armc5 | inactive: -1.27
18 | GGCCUUACAUCCUGUCUUUTT against 2810038K19Rik | inactive: -2.08
19 | GGUUUUUGUUAAGGUCAAUTT against Abca16 | inactive: 1.03
20 | GGCUUUCCGUAUAACCUACTT against 1700018F24Rik | inactive: 1.09

# Continued:

row,Sequence,z-score
1,GUCCUGGAAGAAAUGAGAATT against Ifna4,inactive: 0.0224
2,GGAGAAAUGUGAUGUACAATT against A630029F06,inactive: -0.00605
3,GGAAGAGGAGGAAAAGUCUTT against Armcx1,inactive: -0.134
4,GGUUCAUGAUUUUUCAAGCTT against BC058638,inactive: 0.242
5,GGGUGACAGACAAUGGUCUTT against Hk2,inactive: 0.268
6,GGCUAUGGAUGAACUGGUUTT against Zfp513,inactive: 0.947
7,GCUGUUUUGUCAGUCACAUTT against Olfr519,inactive: -1.82
8,GGAAGUGGUGCGCAAGAUGTT against 2310040C09Rik,inactive: -1.41
9,GGCUCUGAAGACUGUGAUCTT against 1200002G13Rik,inactive: 1.6
10,GGACUCUGUCUCCAUCUAATT against Mtap7,inactive: -0.334
11,GGCCUCAAAGUGUGGUUGUTT against Rhob,inactive: -1.78
12,CCUCCUGUACGAACACGCATT against Sars2,inactive: 2.35
13,GGGAUAGGAUUAAACAUAGTT against Hivep2,inactive: 0.38
14,GGAAGCUGAGAACCUAGCUTT against Retnlg,inactive: 0.984
15,GGAACUUCUCAAAAGGCUGTT against Bzrap1,inactive: -0.384
16,GCUGGUCAUCAUGUGGAAGTT against D630042P16Rik,inactive: -0.295
17,GGACUUGGAACACCAGUACTT against Pomt1,inactive: -0.612
18,GGCCCUGUGUUUAUCAAAGTT against Cntn3,inactive: -0.0888
19,GGAAUCUGCUAUGCUUAAATT against CRAD-L,inactive: -0.983
20,GGUAAUAAAGCAAUUGAGUTT against Mcm5,inactive: 1.01
21,GCUCCCAUUUCGUAGGAAATT against 9630041N07,inactive: 1.06
22,GCUUGAUUUCUACGUUCAUTT against Slc15a2,inactive: 0.687
23,GCUGGGUUCAACAUUAUAGTT against Olfr160,inactive: 2.64
24,GGUUUAUGAACUGACUUUGTT against Hdh,inactive: -0.446
25,CCACUUGAACCAUGUAUUUTT against A430070M19,inactive: -0.459
26,GGAGAUUUAAACAGCUAGGTT against Gmip,inactive: 0.454

row,Sequence,z-score
1,CCAUUGGACACCUGACAGATT against Rasgef1c,inactive: -1.33
2,GGGCUUAAGGAGCACUGCATT against Tnxb,inactive: 2.33
3,GCAUAAGGAUAUAGCAUUATT against Ctla4,inactive: -0.299
4,GGUUUUAUCUCUUGUGCCCTT against Mylc2pl,inactive: 0.109
5,GGAGAGUCGGAAUUUUUAUTT against Sgcg,inactive: -0.06
6,GGGUUGAGCAACCGUUUCCTT against Tomm40,inactive: -1.18
7,GCUCCAUUAUGCCAGACUATT against Madcam1,inactive: -2.43
8,GGACUAGAGAAUGUUUCUATT against Rom1,inactive: 0.946
9,GGAUCUCCAGAGCAGAAAATT against E030049G20Rik,inactive: -0.47
10,UUUUGCUACUAUCUUGAAGTT against Ugt1a13,inactive: 1.8
11,GCAAGGUGACAUCAGAAGUTT against Flot2,inactive: 2.84
12,GGAGUCGAUUACGUUUAUUTT against Sec14l1,inactive: -0.213
13,GGACUCAUUGACUUCAUCATT against Apg12l,inactive: 1.1
14,CCUCUAAAUCCUGAAGUGUTT against AU041707,inactive: 1.31
15,CCAGUUUCUGUUCUUCCCUTT against 4933402J24Rik,inactive: -0.178
16,GCAGACACUGUUCGGGAUUTT against Zfp367,inactive: -1.16
17,GGCCUUCUUCACCAUUGCUTT against Entpd6,inactive: -2.11
18,GCCGAAUCUUCAAGCCUGUTT against Ssh3,inactive: 1.69
19,GCACGUGAACACAAACCCGTT against Nup50,inactive: 0.272
20,CCAUAUUGAUCAGUUGAAGTT against Mapk14,inactive: 0.236
21,GCACCACUAGAGGAAACGATT against Wisp1,inactive: 1.25
22,GGUGAAAAUCAUCCAGCGATT against D230050A05,inactive: -0.602
23,GGAACUGAAGGCUCUCAUCTT against AY314008,inactive: -0.115
24,GCACUCACAUUGAAUUAAATT against 2410007P03Rik,inactive: -0.0616
25,CGAAAAUAAUGGGUUCGGUTT against Tbx5,inactive: 1.64
26,CCAACCUGCUUGCCAAUUGTT against 5031414D18Rik,inactive: 1.82

row,Sequence,z-score
1,GGGAAGCUGGGAAAAAAGATT against 2810453K03Rik,inactive: -0.402
2,GGUGUAAGUCGGUAUAUUUTT against 4921511I16Rik,inactive: -0.414
3,GGACUGGAAAAUAUCAAACTT against Spata5,inactive: 0.501
4,CGAUGGAGUCUGGUAUUCATT against Srpx,inactive: 1.76
5,GCCGUAUGAAUCCUACACATT against 2310075A12Rik,inactive: -0.654
6,GGAGCAGCGACUCAACUUUTT against Stub1,inactive: 0.162
7,GGUGAAAAAUGCAUUGAAGTT against Olfr1043,inactive: 1.08
8,GGACAACGGAUUUUAGGAGTT against E130309B19Rik,inactive: 0.426
9,GGCCAAGAGAAUCUAAAGATT against Strn4,inactive: 0.216
10,GCGGCAUGGUUAAGAAUUATT against Chst11,inactive: 0.212
11,CGGAUGAACAUUUACCAAGTT against 9330164H19Rik,inactive: -0.536
12,GGUAGCCAGAAAAAAAAAATT against Pkn3,inactive: 0.601
13,GGAACCAAAAGCCUGGCGATT against Pkd1l3,inactive: 0.0646
14,CGACCAGAGUGGAUACCUGTT against Ocm,inactive: 1.1
15,CCUCUUGUAUGUGUGGUUUTT against Cdc25b,inactive: -0.43
16,CGAGUGUUUGGACAACAAUTT against Ldlr,inactive: 1.58
17,GGAAUACCAAAGUAUGAAGTT against 4831426I19Rik,inactive: 1.59
18,GGAAGAAGAUUCCUUACAATT against 4933414G08,inactive: 0.786
19,UGCCGCUCGUGUUUCGGGATT against Hmx2,inactive: -1.14
20,GCCAUGAUUUUCAUGUACGTT against Olfr711,inactive: 0.236
21,GGACAUGGGCAAAAUGACCTT against Naga,inactive: 0.681
22,GGCCAUAUUAAGUAUGGAGTT against 3110048E14Rik,inactive: 0.378
23,GGUCGACAGAAAAAACAUUTT against 6430556C10Rik,inactive: 0.84
24,GGAGUGCAUGACUCAGCUUTT against Olfr926,inactive: -0.738
25,GCUUCCUACUCUCCAGUUUTT against 1110014F24Rik,inactive: 0.321
26,GCCUUACACUUUCCUACAATT against D630045E04Rik,inactive: 0.912
